Reference: patent publication US4056626A, “Pharmaceutical composition containing benzofuran derivative” (Kakenyaku Kako Co., Ltd., priority 1971, dated 1977)

Test system: isoproterenol antagonism concerning myocardial contractile force and heart rate in isolated guinea-pig atria
Assay: isoproterenol antagonism in isolated guinea-pig atria
Settings: 37° C., isoproterenol 1 × 10^-8 g./ml., 50% inhibition
Protocol: With respect to the present benzofuran derivatives and Propranolol, there was tested isoproterenol antagonism concerning myocardial contractile force and heart rate in isolated guinea-pig atria (Cf. The Journal of Pharmacology and Experimental Therapeutics, Vol. 168, No. 1, pages 116 to 126, 1969).
Isolated guinea-pig atrium was mounted in a chamber containing Ringer-Lockesolution (37° C.), through which a mixed gas of 95% O2 and 5% CO2 was continuously bubbled. Isoproterenol was added to the solution at a concentration of 1 × 10^-^8 g./ml. 50% inhibitions of isopreterenol responses and relative activities were determined by the same manner as described in Example 54.

CC(C)NCC(O)COc1cccc2ccccc12 (centres unmarked) [Propranolol, reference compound]
Inhibition of increase in heart rate ED 50: 0.1 mg/L | Inhibition of increase in myocardial contractile force ED 50: 0.01 mg/L
